The list shows only some results of the screen, not a fair sample: it gathers tests that were run many times, whatever their T/C, doses with no T/C, and many T/C values between a quarter and a half above the control. Other doses and runs of a compound stand elsewhere. T/C gives the treated animals as a percentage of the vehicle group. Schedules are NCI's codes, read here as Q, the interval in days (D) or hours (H), X, the number of doses. Some T/C values carry the count of animals alive at the toxicity check (mostly the fifth day); without a count, all were alive then. Some entries give survivors of the animals treated and no T/C: the source files T/C as zero there, which appears to mark a toxic dose or a test without result, not a measured value. Counts of survivors are from the toxicity check (mostly the fifth day) where no day follows; animals may have died later. Some doses were run more than once; the values are given in rising order.
Tested on: nude mice, HT29 intrarenal xenograft, tumor weight T/C
Assay: NCI In Vivo Anticancer Drug Screen. Data for tumor model HT29;CX-1 Human Adenocarcinoma (MER+) (intrarenal inoculation) in NU/NU Swiss (nude) mice
Settings: T/C endpoint: mean tumor weight change, higher T/C = larger tumour
In short: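 Tumor-bearing mice received test compound or vehicle, and tumor size or survival was recorded. Values are the treated-group measurement divided by the vehicle-treated control measurement.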

[1] = dose: 300.0 mg/kg/injection, schedule: Q04DX004 (sc), vehicle: saline with Tween-80
[2] = dose: 600.0 mg/kg/injection, schedule: Q04DX004 (sc), vehicle: saline with Tween-80
[3] = dose: 1200.0 mg/kg/injection, schedule: Q04DX004 (sc), vehicle: saline with Tween-80
[4] = dose: 300.0 mg/kg/injection, schedule: Q04DX004 (sc), vehicle: saline, evaluated on day 15
[5] = dose: 150.0 mg/kg/injection, schedule: Q04DX004 (sc), vehicle: saline with Tween-80

Structure (SMILES): O=S(=O)(N=N/C=C1\C=CC=CN1O)c1cccs1
- survivor count [1]: 3 of 6 on day 15
- survivor count [2]: 0 of 6 on day 15
- survivor count [3]: 0 of 6 on day 15

Structure (SMILES): c1ccc2sc(SSN3CC4CCC(CC4)C3)nc2c1
- T/C (dose: 100.0 mg/kg/injection, schedule: Q01DX010 (sc), vehicle: saline with Tween-80, evaluated on day 20): 127 % of control

Structure (SMILES): C1CC[N-]CC1.[Cl][Pt+2][Cl].[NH-]C1CC1
- survivor count (dose: 100.0 mg/kg/injection, schedule: Q04DX004 (sc), vehicle: water): 0 of 6 on day 15

Structure (SMILES): CCN(CC)CCNc1ccc(C)c2sc3ccccc3c(=O)c12
- T/C (dose: 50.0 mg/kg/injection, schedule: Q01DX010 (sc), vehicle: saline, evaluated on day 20): 142 % of control
- survivor count (dose: 200.0 mg/kg/injection, schedule: Q01DX010 (sc), vehicle: saline): 1 of 3 on day 20
- survivor count (dose: 400.0 mg/kg/injection, schedule: Q01DX010 (sc), vehicle: saline): 0 of 3 on day 20

Structure (SMILES): COC(=O)c1ccoc1
- T/C [4]: 129 % of control
- T/C (dose: 600.0 mg/kg/injection, schedule: Q04DX004 (sc), vehicle: saline, evaluated on day 15): 130 % of control
- survivor count (dose: 1200.0 mg/kg/injection, schedule: Q04DX004 (sc), vehicle: saline): 0 of 6 on day 15

Structure (SMILES): COC(=O)C(F)C(Br)C(=O)OC (stereo not drawn)
- survivor count (dose: 37.5 mg/kg/injection, schedule: Q04DX004 (sc), vehicle: saline with Tween-80): 1 of 6 on day 15
- survivor count [5]: 0 of 6 on day 15
- survivor count [1]: 0 of 6 on day 15

Structure (SMILES): Cc1nn(CCO)c(C)c1N=[N+]([O-])c1c(C)nn(CCO)c1C
- T/C (dose: 2400.0 mg/kg/injection, schedule: Q04DX004 (sc), vehicle: Klucel (hydroxypropylcellulose) (HPC), evaluated on day 15): 133 % of control [4 of 6 alive on day 15]

Structure (SMILES): CS(=O)(=O)CS(=O)(=O)OCCCl
- survivor count (dose: 300.0 mg/kg/injection, schedule: Q04DX004 (sc), vehicle: suspension in saline): 3 of 6 on day 15

Structure (SMILES): CC[C@@]1(O)C[C@H](OC2CC(N(C)C)C(OC3CC(O)C(OC4CCC(=O)C(C)O4)C(C)O3)C(C)O2)c2c(cc3c(c2O)C(=O)c2c(O)ccc(O)c2C3=O)[C@H]1C(=O)OC (stereo partly drawn)
- survivor count (dose: 12.0 mg/kg/injection, schedule: Q04DX004 (sc), vehicle: water): 0 of 6 on day 15
- survivor count (dose: 24.0 mg/kg/injection, schedule: Q04DX004 (sc), vehicle: water): 0 of 6 on day 15

Structure (SMILES): COc1cccc2c1C(=O)c1c(O)c3c(c(O)c1C2=O)C[C@@](O)(/C(C)=N\NC(=O)CO)C[C@@H]3OC1CC(N)C(O)C(C)O1 (stereo partly drawn)
- survivor count (dose: 125.0 mg/kg/injection, schedule: Q04DX004 (sc), vehicle: saline): 0 of 3 on day 15

Structure (SMILES): O=c1nc(Oc2ccccc2)nc2ncccn12
- survivor count (dose: 200.0 mg/kg/injection, schedule: Q01DX010 (sc), vehicle: saline with Tween-80): 3 of 6 on day 20
- survivor count (dose: 400.0 mg/kg/injection, schedule: Q01DX010 (sc), vehicle: saline with Tween-80): 1 of 6 on day 20

Structure (SMILES): COc1ccc([I+]c2cccc(Cl)c2)cc1Cl
- survivor count [3]: 0 of 6 on day 15
- survivor count (dose: 2400.0 mg/kg/injection, schedule: Q04DX004 (sc), vehicle: saline with Tween-80): 0 of 6 on day 15

Structure (SMILES): COCCCNC1=C(C#N)C(=O)NC(c2cccc([N+](=O)[O-])c2)S1 (stereo not drawn)
- T/C (dose: 400.0 mg/kg/injection, schedule: Q04DX004 (sc), vehicle: saline with Tween-80, evaluated on day 15): 137 % of control

Structure (SMILES): Nc1ncnc2c1ncn2C1C=C(CO)C(O)C1O (stereo not drawn)
- survivor count (dose: 30.0 mg/kg/injection, schedule: Q04DX004 (sc), vehicle: saline): 0 of 6 on day 15

Structure (SMILES): CO[C@H](C(=O)[C@@H](O)[C@@H](C)O)[C@@H]1Cc2cc3cc(OC4CC(OC5CC(O)C(O)C(C)O5)C(O)C(C)O4)c(C)c(O)c3c(O)c2C(=O)[C@H]1OC1CC(OC2CC(OC3CC(C)(O)C(O)C(C)O3)C(O)C(C)O2)C(O)C(C)O1 (stereo partly drawn)
- survivor count (dose: 2.0 mg/kg/injection, schedule: Q01DX010 (sc), vehicle: saline): 0 of 4 on day 11 and 1 of 3 on day 11
- survivor count (dose: 6.0 mg/kg/injection, schedule: Q04DX004 (sc), vehicle: saline): 1 of 6 on day 15 and 2 of 6 on day 15

Structure (SMILES): S=P(N1CC1)(N1CC1)N1CC1
- survivor count (dose: 4.0 mg/kg/injection, schedule: Q01DX010 (sc), vehicle: saline): 0 of 3 on day 20
- survivor count (dose: 8.0 mg/kg/injection, schedule: Q01DX010 (sc), vehicle: saline): 0 of 3 on day 20

Structure (SMILES): O=S(=O)(O)O
- survivor count (dose: 600.0 mg/kg/injection, schedule: Q04DX004 (sc), vehicle: Klucel (hydroxypropylcellulose) (HPC)): 0 of 6 on day 15

Structure (SMILES): Cc1ccccc1SSc1ccccc1C
- T/C (dose: 400.0 mg/kg/injection, schedule: Q01DX010 (sc), vehicle: saline with Tween-80, evaluated on day 20): 146 % of control
- T/C (dose: 800.0 mg/kg/injection, schedule: Q01DX010 (sc), vehicle: saline with Tween-80, evaluated on day 20): 147 % of control

Structure (SMILES): C[CH2][Sn]([CH2]C)([CH2]C(=O)OC)[CH2]C(=O)OC
- T/C (dose: 6.25 mg/kg/injection, schedule: Q04DX004 (sc), vehicle: saline with Tween-80, evaluated on day 15): 134 % of control
- survivor count (dose: 75.0 mg/kg/injection, schedule: Q04DX004 (sc), vehicle: saline with Tween-80): 2 of 6 on day 15
- survivor count [5]: 0 of 6 on day 15
- survivor count [1]: 0 of 6 on day 15
- survivor count [2]: 0 of 6 on day 15

Structure (SMILES): CN(C1=NS(=O)(=O)N=C(N(C)c2ccccc2)O1)c1ccccc1
- T/C (dose: 900.0 mg/kg/injection, schedule: Q04DX004 (sc), vehicle: Klucel (hydroxypropylcellulose) (HPC), evaluated on day 15): 148 % of control

Structure (SMILES): O=C1CN(Cc2ccc3c(c2)OCO3)NO1
- survivor count [2]: 3 of 6 on day 15
- survivor count [3]: 0 of 6 on day 15

Structure (SMILES): C[C@@]12C(=O)OC(=O)[C@]1(C)[C@H]1CC[C@@H]2O1
- survivor count (dose: 10.0 mg/kg/injection, schedule: Q04DX004 (sc), vehicle: Klucel (hydroxypropylcellulose) (HPC)): 0 of 6 on day 15

Structure (SMILES): CC(=O)CC(=O)CCC(=O)O
- T/C [4]: 128 % of control

Structure (SMILES): COc1ccc(S(=O)(=O)N/N=C/C(=O)O)cc1
- survivor count (dose: 800.0 mg/kg/injection, schedule: Q04DX004 (sc), vehicle: saline with Tween-80): 1 of 6 on day 15
- survivor count [3]: 0 of 6 on day 15

Structure (SMILES): CS(=O)(=O)c1ncc(Br)cn1
- survivor count [2]: 0 of 6 on day 15

Structure (SMILES): COC(=O)NC1C(C)OC(OC2C/C=C(/C)C3C=CC4C(OC5CC(OC6CCC(OC7CC(O)C(OC8CCC(O)C(C)O8)C(C)O7)C(C)O6)C(OC(C)=O)C(C)O5)C(C)CC(C)C4C3(C)/C(O)=C3/C(=O)OC4(CC(C=O)=CC(O)C4/C=C\2C)C3=O)CC1(C)[N+](=O)[O-] (stereo not drawn)
- survivor count (dose: 100.0 mg/kg/injection, schedule: Q04DX004 (sc), vehicle: other): 0 of 6 on day 15

Structure (SMILES): CN(N=O)C(N)=O
- T/C (dose: 25.0 mg/kg/injection, schedule: Q04DX004 (sc), vehicle: suspension in saline, evaluated on day 15): 144 % of control
- survivor count (dose: 50.0 mg/kg/injection, schedule: Q01DX010 (sc), vehicle: saline with Tween-80): 0 of 3 on day 20
- T/C (dose: 50.0 mg/kg/injection, schedule: Q04DX004 (sc), vehicle: suspension in saline, evaluated on day 15): 144 % of control
- survivor count (dose: 100.0 mg/kg/injection, schedule: Q01DX010 (sc), vehicle: saline with Tween-80): 0 of 3 on day 20
- survivor count (dose: 200.0 mg/kg/injection, schedule: Q04DX004 (sc), vehicle: suspension in saline): 0 of 4 on day 15

Structure (SMILES): C=CCOCC1CO1 (stereo not drawn)
- survivor count (dose: 600.0 mg/kg/injection, schedule: Q04DX004 (sc), vehicle: saline): 1 of 6 on day 15

Structure (SMILES): C(=N/NC1=NCCN1)/c1c2ccccc2c(/C=N\NC2=NCCN2)c2ccccc12
- survivor count (dose: 150.0 mg/kg/injection, schedule: Q04DX004 (sc), vehicle: saline): 2 of 6 on day 15

Structure (SMILES): CC[PH+](CC)CC[S-].CC[PH+](CC)CC[S-].[Au+].[Au+]
- T/C (dose: 20.0 mg/kg/injection, schedule: Q04DX004 (sc), vehicle: Klucel (hydroxypropylcellulose) (HPC), evaluated on day 15): 145 % of control
- T/C (dose: 40.0 mg/kg/injection, schedule: Q04DX004 (sc), vehicle: Klucel (hydroxypropylcellulose) (HPC), evaluated on day 15): 139 % of control
- T/C (dose: 80.0 mg/kg/injection, schedule: Q04DX004 (sc), vehicle: Klucel (hydroxypropylcellulose) (HPC), evaluated on day 15): 149 % of control

Structure (SMILES): COc1ccc(CC2C(=O)NC(C)C(=O)N(C)C3Cc4ccc(cc4)Oc4cc(ccc4O)CC(C(=O)NC(C)C(=O)NC(C)C(=O)N2C)N(C)C3=O)cc1 (stereo not drawn)
- survivor count (dose: 32.0 mg/kg/injection, schedule: Q04DX004 (sc), vehicle: saline with Tween-80): 3 of 6 on day 15
- survivor count (dose: 64.0 mg/kg/injection, schedule: Q04DX004 (sc), vehicle: saline with Tween-80): 0 of 6 on day 15

From PubChem BioAssay AID206 (DTP/NCI, 2004)
